Assay results reported in paper PMC7862700.
The entries are a selection whose mix differs from that of the whole data set. At the low end of the ranking, values are background and their order means little.

Protein sequences, listed by entry. Tags and fused reporters are not part of them. Lines headed by an entry give the natural chain unless they say otherwise; changes in a name come on top.
UniProt Q01892: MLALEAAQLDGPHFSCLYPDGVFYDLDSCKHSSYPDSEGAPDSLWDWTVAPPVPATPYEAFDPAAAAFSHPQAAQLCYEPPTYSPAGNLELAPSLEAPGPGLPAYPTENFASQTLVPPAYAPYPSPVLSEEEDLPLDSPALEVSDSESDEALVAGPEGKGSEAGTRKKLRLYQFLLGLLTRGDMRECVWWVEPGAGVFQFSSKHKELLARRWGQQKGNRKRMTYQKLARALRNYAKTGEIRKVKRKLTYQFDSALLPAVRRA

Target: T1, FLI1 (UniProt Q01543)
T1 sequence: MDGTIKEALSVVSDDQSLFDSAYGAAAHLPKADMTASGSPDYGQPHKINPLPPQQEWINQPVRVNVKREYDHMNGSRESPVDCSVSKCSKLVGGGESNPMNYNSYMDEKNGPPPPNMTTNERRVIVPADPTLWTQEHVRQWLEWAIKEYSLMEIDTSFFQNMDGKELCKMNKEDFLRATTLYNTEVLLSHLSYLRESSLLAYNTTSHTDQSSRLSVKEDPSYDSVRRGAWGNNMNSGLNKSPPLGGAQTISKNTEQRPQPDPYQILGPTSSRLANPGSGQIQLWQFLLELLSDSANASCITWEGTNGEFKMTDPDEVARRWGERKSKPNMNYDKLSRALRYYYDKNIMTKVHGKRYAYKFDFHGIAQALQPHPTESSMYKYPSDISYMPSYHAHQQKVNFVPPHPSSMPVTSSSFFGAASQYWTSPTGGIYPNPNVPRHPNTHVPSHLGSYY
Test: DAPPL (digital affinity profiling via proximity ligation, sequencing)
Settings: 10 mM Tris-HCl pH 7.5, 50 mM NaCl, 1 mM DTT, 4% glycerol, room temperature, 30 min; GST-TFs on glutathione beads, 16-mer random dsDNA library, 0.1% …; high values mean tight binding; double strand, one strand shown; scale: fold enrichment (6-mer frequency, TF over GST control)

| Sequence | binding signal |
| --- | --- |
| GTCGTT | 0.685 |
| GCCATG | 0.764 |
| GGTGAC | 0.857 |
| TTGAGT | 0.707 |
| CGTCGG | 0.389 |
| GGTGGG | 0.7 |
| CGGGAC | 0.548 |
| ATCGGC | 0.717 |
| TGGCGG | 0.827 |
| GTGTGG | 0.652 |
| TCAGAG | 0.711 |
| AGACTG | 0.536 |
| CGGACA | 0.785 |
| AGCGGA | 0.769 |
| TGTGAG | 0.365 |
| GCGGGT | 0.566 |
| GAGTTA | 0.571 |
| GCGGAC | 0.738 |
| GTAGAG | 0.558 |

| Sequence | binding signal |
| --- | --- |
| TGAGGT | 0.672 |
| GCAAGA | 0.845 |
| TTGTGA | 0.822 |
| TCAGGT | 0.9 |
| GGACAC | 0.771 |
| ACTGTG | 0.471 |
| TGGGAG | 0.456 |
| GACGGC | 0.81 |
| CCAAGG | 0.924 |
| ACGAGA | 0.707 |
| GCTGGA | 0.828 |
| GGGGCC | 0.538 |
| CAAGGC | 0.926 |
| CGAGCG | 0.937 |
| GTAAGA | 0.751 |
| AGGCGG | 0.236 |
| GATCGG | 0.512 |
| CGGGAA | 0.755 |
| CAGAGC | 0.887 |

Target: T2, EHF (UniProt Q9NZC4)
T2 sequence: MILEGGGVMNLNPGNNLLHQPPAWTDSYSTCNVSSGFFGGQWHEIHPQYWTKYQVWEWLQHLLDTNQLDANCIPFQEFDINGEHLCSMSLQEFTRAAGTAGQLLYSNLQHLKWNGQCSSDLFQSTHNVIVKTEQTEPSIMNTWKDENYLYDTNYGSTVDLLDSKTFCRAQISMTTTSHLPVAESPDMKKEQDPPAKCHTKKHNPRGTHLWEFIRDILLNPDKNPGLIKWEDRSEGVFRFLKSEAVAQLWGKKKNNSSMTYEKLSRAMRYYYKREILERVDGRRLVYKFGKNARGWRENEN
Test: as above
Settings: 10 mM Tris-HCl pH 7.5, 50 mM NaCl, 1 mM DTT, 4% glycerol, room temperature, 30 min; GST-TFs on glutathione beads, 16-mer random dsDNA library, 0.1% …; high values mean tight binding; double strand, one strand shown; scale: fold enrichment (6-mer frequency, TF over GST control)

| Sequence | binding signal |
| --- | --- |
| GTCGTT | 0.738 |
| GCCATG | 0.806 |
| GGTGAC | 0.823 |
| TTGAGT | 0.677 |
| CGTCGG | 0.44 |
| GGTGGG | 0.672 |
| CGGGAC | 0.574 |
| ATCGGC | 0.626 |
| TGGCGG | 0.757 |
| GTGTGG | 0.594 |
| TCAGAG | 0.709 |
| AGACTG | 0.527 |
| CGGACA | 0.807 |
| AGCGGA | 0.85 |
| TGTGAG | 0.339 |
| GCGGGT | 0.633 |
| GAGTTA | 0.612 |
| GCGGAC | 0.735 |
| GTAGAG | 0.591 |

| Sequence | binding signal |
| --- | --- |
| TGAGGT | 0.614 |
| GCAAGA | 0.842 |
| TTGTGA | 0.762 |
| TCAGGT | 0.804 |
| GGACAC | 0.789 |
| ACTGTG | 0.479 |
| TGGGAG | 0.427 |
| GACGGC | 0.744 |
| CCAAGG | 0.889 |
| ACGAGA | 0.659 |
| GCTGGA | 0.768 |
| GGGGCC | 0.596 |
| CAAGGC | 0.828 |
| CGAGCG | 0.977 |
| GTAAGA | 0.792 |
| AGGCGG | 0.288 |
| GATCGG | 0.51 |
| CGGGAA | 0.747 |
| CAGAGC | 0.824 |

Target: SPIB (UniProt Q01892)
Test: as above
Settings: 10 mM Tris-HCl pH 7.5, 50 mM NaCl, 1 mM DTT, 4% glycerol, room temperature, 30 min; GST-TFs on glutathione beads, 16-mer random dsDNA library, 0.1% …; high values mean tight binding; double strand, one strand shown; scale: fold enrichment (6-mer frequency, TF over GST control)

| Sequence | binding signal |
| --- | --- |
| GTCGTT | 0.702 |
| GCCATG | 0.723 |
| GGTGAC | 0.703 |
| TTGAGT | 0.687 |
| CGTCGG | 0.473 |
| GGTGGG | 0.604 |
| CGGGAC | 0.561 |
| ATCGGC | 0.61 |
| TGGCGG | 0.834 |
| GTGTGG | 0.745 |
| TCAGAG | 0.722 |
| AGACTG | 0.512 |
| CGGACA | 0.766 |
| AGCGGA | 0.784 |
| TGTGAG | 0.327 |
| GCGGGT | 0.631 |
| GAGTTA | 0.582 |
| GCGGAC | 0.625 |
| GTAGAG | 0.579 |

| Sequence | binding signal |
| --- | --- |
| TGAGGT | 0.597 |
| GCAAGA | 0.782 |
| TTGTGA | 0.829 |
| TCAGGT | 0.91 |
| GGACAC | 0.702 |
| ACTGTG | 0.484 |
| TGGGAG | 0.42 |
| GACGGC | 0.753 |
| CCAAGG | 0.827 |
| ACGAGA | 0.685 |
| GCTGGA | 0.832 |
| GGGGCC | 0.547 |
| CAAGGC | 0.892 |
| CGAGCG | 0.979 |
| GTAAGA | 0.771 |
| AGGCGG | 0.273 |
| GATCGG | 0.457 |
| CGGGAA | 0.799 |
| CAGAGC | 0.837 |
